According to publication PMC8610266:
No constants are given. Whether binding was seen depends on the method and setting. Binding calls can cover weak binding; strength is not graded here. Sequences can lack the tags named with a protein.

The chains behind the UniProt entries cited, without tags or fusion partners. Where a name states a change or a piece, a line headed by the entry shows the natural chain unless it says otherwise.
UniProt Q02753: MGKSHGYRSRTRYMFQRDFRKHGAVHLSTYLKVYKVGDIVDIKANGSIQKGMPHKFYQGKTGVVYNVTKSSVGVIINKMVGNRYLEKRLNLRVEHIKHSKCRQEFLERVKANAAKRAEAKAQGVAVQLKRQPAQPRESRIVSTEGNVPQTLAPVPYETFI
UniProt P0C0W9: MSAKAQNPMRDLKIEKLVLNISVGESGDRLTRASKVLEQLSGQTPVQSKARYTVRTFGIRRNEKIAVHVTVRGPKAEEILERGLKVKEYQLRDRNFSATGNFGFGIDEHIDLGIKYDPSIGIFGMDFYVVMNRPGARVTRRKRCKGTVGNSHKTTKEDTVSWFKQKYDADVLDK
UniProt P87262: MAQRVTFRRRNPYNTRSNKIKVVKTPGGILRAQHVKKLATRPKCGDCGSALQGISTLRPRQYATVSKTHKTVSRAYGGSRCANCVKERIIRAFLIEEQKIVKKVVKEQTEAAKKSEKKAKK

Biological target: T1, Nog1-TAP (LSU biogenesis factor Nog1 chromosomally encoded in fusion with a tandem affinity purification tag) (S. cerevisiae) (UniProt Q02892)
T1 sequence: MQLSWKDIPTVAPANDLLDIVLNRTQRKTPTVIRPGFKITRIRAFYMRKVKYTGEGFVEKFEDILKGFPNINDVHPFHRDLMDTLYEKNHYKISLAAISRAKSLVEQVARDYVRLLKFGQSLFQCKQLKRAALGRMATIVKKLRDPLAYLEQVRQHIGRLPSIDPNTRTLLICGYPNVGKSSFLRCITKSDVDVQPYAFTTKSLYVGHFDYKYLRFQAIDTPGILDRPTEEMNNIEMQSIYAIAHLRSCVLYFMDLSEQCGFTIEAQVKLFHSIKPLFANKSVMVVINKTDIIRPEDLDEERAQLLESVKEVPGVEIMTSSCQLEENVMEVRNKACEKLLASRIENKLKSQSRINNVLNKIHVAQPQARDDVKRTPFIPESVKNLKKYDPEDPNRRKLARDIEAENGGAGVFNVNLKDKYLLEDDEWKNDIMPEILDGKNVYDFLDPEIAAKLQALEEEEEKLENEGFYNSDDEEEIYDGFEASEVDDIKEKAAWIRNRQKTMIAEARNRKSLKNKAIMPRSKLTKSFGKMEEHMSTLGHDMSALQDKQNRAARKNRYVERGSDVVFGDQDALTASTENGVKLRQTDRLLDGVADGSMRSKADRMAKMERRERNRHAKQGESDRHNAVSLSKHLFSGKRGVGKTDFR
Assay: cryo-EM structure; LSU precursor particles (with pre-rRNA) associated with TAP tagged Nog1, purified in one step on rabbit IgG magnetic beads from yeast extract in buffer A200 (200 mM potassium chloride, 20 mM Tris pH8, 5 mM magnesium acetate), eluted with TEV protease; single particle cryo-EM, maps of sub-nanometre resolution, models by flexible fitting of published models; control strain Y1877 and strains with expression of rpL2, rpL25 or rpL34 shut down for 4 h in glucose

binding	Substance
binds	rpL21 (from UniProt Q02753)
binds	rpL11 (from UniProt P0C0W9)
binds	rpL34 (eL34) (from UniProt P87262)
